Read-outs that look alike come from different tables or passages of the source. These are yes or no findings as the source states them, for the method shown. Binding seen in cells or lysates may run through a third protein. Some results given as binding are weak or reduced against the parent protein; the word gives no strength.
Assays:
Assay in all cases: co-IP
[1] = target: GFP::Dicer-2^WT (Drosophila melanogaster) (UniProt A1ZAW0)
[2] = target: GFP::Dicer-2^Hel1 (Drosophila melanogaster) (UniProt A1ZAW0)
[3] = target: GFP::Dicer-2^RNaseIII (Drosophila melanogaster) (UniProt A1ZAW0)
[4] = target: GFP::Dicer-2^WT (Drosophila melanogaster) (UniProt A1ZAW0); remark: listed apart in the source

Sequences of proteins named here, by UniProt entry; tags and fusion partners are left off. A change or cut given only in a name is not applied to a line headed by its entry. A line that says so, or that is headed by a name, gives the form on record, which may keep a tag or linker.
UniProt A1ZAW0: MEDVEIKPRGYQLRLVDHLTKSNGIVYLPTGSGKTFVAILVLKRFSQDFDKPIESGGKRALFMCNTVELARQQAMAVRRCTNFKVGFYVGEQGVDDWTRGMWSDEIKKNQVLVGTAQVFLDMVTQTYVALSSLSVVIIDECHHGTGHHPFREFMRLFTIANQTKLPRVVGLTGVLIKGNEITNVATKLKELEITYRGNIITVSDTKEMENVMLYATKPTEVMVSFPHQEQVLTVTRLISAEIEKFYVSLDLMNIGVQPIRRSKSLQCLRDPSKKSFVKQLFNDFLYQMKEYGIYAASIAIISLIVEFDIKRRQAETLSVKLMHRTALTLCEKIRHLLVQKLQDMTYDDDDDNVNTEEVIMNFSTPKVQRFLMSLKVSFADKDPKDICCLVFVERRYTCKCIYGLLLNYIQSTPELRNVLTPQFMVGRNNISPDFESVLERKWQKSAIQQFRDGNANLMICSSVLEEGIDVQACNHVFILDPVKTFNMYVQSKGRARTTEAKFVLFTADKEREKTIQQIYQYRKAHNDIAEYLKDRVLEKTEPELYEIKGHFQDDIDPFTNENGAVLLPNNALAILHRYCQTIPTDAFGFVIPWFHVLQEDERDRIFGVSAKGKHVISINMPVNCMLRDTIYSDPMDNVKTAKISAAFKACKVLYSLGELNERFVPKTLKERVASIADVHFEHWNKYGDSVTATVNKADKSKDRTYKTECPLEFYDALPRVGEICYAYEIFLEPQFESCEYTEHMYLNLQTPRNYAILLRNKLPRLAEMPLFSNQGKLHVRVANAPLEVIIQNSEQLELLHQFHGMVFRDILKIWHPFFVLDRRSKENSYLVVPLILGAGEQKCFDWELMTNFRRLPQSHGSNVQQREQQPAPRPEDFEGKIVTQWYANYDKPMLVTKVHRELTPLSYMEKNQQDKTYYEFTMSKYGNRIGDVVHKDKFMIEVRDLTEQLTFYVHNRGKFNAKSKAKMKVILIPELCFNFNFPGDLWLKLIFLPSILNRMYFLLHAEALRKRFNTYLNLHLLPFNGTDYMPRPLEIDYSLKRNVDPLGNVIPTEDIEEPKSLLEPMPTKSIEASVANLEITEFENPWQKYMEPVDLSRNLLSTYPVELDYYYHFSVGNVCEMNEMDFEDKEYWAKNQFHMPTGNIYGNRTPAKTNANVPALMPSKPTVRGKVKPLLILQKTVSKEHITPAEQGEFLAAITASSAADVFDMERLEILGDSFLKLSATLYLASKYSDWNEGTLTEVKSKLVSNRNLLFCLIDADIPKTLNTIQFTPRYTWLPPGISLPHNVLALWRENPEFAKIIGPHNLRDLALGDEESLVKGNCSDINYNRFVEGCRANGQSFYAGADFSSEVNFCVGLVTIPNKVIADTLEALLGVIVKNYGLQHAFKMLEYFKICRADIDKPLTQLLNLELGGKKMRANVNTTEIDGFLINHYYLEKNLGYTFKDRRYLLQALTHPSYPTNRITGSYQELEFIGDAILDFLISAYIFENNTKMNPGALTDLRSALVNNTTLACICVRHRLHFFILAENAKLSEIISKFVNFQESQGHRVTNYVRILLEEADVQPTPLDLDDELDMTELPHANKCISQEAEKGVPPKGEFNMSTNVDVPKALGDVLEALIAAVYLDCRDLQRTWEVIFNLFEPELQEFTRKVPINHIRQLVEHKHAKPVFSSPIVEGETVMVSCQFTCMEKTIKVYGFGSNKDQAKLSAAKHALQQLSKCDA
GFP::Dicer-2^Hel1 (A1ZAW0, form named): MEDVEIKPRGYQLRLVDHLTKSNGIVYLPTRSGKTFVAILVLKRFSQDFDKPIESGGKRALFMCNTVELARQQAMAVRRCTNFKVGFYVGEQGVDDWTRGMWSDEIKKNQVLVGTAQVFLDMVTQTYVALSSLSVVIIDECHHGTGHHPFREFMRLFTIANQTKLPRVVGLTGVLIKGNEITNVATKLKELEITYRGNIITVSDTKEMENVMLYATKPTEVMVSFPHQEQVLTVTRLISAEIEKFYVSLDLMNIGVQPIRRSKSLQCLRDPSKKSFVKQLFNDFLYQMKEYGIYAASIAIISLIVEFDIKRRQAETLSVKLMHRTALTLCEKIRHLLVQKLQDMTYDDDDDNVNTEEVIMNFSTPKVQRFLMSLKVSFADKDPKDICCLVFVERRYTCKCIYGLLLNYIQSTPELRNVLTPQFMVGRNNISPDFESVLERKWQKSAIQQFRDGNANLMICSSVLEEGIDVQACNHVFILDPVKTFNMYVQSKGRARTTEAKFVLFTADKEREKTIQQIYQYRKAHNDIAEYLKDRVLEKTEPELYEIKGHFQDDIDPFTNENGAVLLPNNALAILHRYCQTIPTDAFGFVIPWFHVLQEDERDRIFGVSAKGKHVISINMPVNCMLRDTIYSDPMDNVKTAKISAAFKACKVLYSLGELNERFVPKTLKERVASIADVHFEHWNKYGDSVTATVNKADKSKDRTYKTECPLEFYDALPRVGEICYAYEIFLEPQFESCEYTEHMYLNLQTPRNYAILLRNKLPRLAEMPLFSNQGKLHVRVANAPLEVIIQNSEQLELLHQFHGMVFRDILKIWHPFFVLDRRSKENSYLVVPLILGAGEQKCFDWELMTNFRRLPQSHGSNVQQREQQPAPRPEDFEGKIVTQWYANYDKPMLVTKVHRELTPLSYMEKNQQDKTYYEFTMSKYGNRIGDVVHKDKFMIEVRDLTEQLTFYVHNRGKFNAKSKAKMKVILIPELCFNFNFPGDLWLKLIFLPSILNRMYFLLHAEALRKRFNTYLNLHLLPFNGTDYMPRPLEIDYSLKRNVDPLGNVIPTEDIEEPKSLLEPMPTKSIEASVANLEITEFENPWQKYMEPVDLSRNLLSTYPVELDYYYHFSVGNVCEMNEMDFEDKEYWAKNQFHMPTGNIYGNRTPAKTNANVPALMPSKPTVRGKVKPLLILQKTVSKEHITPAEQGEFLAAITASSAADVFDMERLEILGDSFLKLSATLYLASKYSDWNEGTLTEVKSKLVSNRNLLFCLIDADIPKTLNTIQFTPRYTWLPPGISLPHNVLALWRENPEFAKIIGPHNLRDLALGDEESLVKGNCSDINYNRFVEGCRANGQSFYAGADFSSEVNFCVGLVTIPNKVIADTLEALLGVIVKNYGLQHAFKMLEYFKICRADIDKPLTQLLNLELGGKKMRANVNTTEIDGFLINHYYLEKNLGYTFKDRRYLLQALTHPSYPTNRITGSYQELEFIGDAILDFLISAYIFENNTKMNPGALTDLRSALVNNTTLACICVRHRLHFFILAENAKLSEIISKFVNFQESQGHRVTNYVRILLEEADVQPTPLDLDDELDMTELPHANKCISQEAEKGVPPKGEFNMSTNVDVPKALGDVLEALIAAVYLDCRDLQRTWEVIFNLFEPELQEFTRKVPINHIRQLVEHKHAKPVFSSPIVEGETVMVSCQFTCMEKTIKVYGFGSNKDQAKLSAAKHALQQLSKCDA
GFP::Dicer-2^RNaseIII (A1ZAW0, form named): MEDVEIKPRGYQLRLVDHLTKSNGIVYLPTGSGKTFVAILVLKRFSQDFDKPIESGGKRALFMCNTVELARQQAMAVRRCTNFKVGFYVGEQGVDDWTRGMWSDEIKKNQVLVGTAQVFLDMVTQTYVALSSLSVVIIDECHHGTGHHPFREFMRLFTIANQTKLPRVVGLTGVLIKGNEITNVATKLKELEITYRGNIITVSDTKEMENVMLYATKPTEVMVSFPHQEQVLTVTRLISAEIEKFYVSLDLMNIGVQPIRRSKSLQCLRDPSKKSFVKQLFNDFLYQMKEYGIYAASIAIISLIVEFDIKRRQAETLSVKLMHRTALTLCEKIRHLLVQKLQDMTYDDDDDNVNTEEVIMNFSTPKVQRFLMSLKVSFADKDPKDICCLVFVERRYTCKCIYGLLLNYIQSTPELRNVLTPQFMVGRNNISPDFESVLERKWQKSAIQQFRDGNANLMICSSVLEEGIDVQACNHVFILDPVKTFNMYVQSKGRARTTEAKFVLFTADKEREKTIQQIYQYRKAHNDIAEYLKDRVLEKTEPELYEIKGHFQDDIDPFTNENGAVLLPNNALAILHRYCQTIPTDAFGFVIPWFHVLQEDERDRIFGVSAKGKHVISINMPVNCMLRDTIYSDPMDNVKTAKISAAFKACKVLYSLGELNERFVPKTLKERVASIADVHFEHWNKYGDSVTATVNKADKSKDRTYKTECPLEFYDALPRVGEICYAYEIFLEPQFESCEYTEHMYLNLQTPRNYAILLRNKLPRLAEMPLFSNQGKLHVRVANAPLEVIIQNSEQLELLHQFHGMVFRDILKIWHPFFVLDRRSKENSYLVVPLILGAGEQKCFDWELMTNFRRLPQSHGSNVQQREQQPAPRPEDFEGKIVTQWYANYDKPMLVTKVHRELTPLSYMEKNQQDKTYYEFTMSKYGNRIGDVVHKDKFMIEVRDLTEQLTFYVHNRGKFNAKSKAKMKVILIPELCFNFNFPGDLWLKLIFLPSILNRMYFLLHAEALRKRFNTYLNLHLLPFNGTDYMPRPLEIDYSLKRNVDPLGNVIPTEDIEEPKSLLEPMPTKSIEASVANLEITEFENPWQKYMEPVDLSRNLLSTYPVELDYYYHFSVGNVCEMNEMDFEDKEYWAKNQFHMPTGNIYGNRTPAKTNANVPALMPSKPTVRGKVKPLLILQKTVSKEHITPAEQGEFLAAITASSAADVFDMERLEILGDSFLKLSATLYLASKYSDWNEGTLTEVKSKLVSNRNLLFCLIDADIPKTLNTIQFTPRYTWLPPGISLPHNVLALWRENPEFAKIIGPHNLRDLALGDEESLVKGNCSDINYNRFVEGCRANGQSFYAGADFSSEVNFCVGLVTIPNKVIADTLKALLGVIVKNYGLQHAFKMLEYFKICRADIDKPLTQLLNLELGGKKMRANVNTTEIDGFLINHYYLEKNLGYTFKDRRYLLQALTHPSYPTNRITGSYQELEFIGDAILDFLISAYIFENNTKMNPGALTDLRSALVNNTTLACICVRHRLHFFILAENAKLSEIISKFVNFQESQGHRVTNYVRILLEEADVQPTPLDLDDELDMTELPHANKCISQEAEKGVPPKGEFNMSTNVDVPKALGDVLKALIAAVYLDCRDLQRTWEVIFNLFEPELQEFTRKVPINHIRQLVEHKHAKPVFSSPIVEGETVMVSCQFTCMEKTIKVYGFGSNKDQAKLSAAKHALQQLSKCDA

Measured: binding

B1: eIF4E1 (protein, UniProt P48598 1-259)
chain: MQSDFHRMKNFANPKSMFKTSAPSTEQGRPEPPTSAAAPAEAKDVKPKEDPQETGEPAGNTATTTAPAGDDAVRTEHLYKHPLMNVWTLWYLENDRSKSWEDMQNEITSFDTVEDFWSLYNHIKPPSEIKLGSDYSLFKKNIRPMWEDAANKQGGRWVITLNKSSKTDLDNLWLDVLLCLIGEAFDHSDQICGAVINIRGKSNKISIWTADGNNEEAALEIGHKLRDALRLGRNNSLQYQLHKDTMVKQGSNVKSIYTL
binds: all assays above

B2: Me31B (protein, UniProt P23128 1-459)
chain: MMTEKLNSGHTNLTSKGIINDLQIAGNTSDDMGWKSKLKLPPKDNRFKTTDVTDTRGNEFEEFCLKRELLMGIFEKGWERPSPIQEAAIPIALSGKDVLARAKNGTGKTGAYCIPVLEQIDPTKDYIQALVMVPTRELALQTSQICIELAKHLDIRVMVTTGGTILKDDILRIYQKVQLIIATPGRILDLMDKKVADMSHCRILVLDEADKLLSLDFQGMLDHVILKLPKDPQILLFSATFPLTVKNFMEKHLREPYEINLMEELTLKGVTQYYAFVQERQKVHCLNTLFSKLQINQSIIFCNSTQRVELLAKKITELGYCCYYIHAKMAQAHRNRVFHDFRQGLCRNLVCSDLFTRGIDVQAVNVVINFDFPRMAETYLHRIGRSGRFGHLGIAINLITYEDRFDLHRIEKELGTEIKPIPKVIDPALYVANVGASVGDTCNNSDLNNSANEEGNVSK
binds: all assays above

Reference: paper doi:10.1101/2023.12.21.570062
